{"source": "patent US20220249617A1", "about": "“CYCLODEXTRIN BASED INJECTABLE COFORMULATIONS OF SGLT2 INHIBITORS AND INCRETIN PEPTIDES” (MEDIMMUNE LIMITED, priority 2019, published 2022)", "assay": "Kinetics of aggregation, thioflavin T (ThT) binding assay", "assay_type": "physicochemical", "note": "For at least one compound, name, drawing or mass did not settle the structure."}
{"smiles": "CCCCCCCCCCCCCCCC(=O)N[C@@H](CCC(=O)NCCCC[C@H](NC(=O)[C@H](C)NC(=O)[C@H](C)NC(=O)[C@H](CCC(N)=O)NC(=O)CNC(=O)[C@H](CCC(=O)O)NC(=O)[C@H](CC(C)C)NC(=O)[C@H](Cc1ccc(O)cc1)NC(=O)[C@H](CO)NC(=O)[C@H](CO)NC(=O)[C@@H](NC(=O)[C@H](CC(=O)O)NC(=O)[C@H](CO)NC(=O)[C@@H](NC(=O)[C@H](Cc1ccccc1)NC(=O)[C@@H](NC(=O)CNC(=O)[C@H](CCC(=O)O)NC(=O)[C@H](C)NC(=O)[C@@H](N)Cc1cnc[nH]1)[C@@H](C)O)[C@@H](C)O)C(C)C)C(=O)N[C@@H](CCC(=O)O)C(=O)N[C@@H](Cc1ccccc1)C(=O)N[C@H](C(=O)N[C@@H](C)C(=O)N[C@@H](Cc1c[nH]c2ccccc12)C(=O)N[C@@H](CC(C)C)C(=O)N[C@H](C(=O)N[C@@H](CCCNC(=N)N)C(=O)NCC(=O)N[C@@H](CCCNC(=N)N)C(=O)NCC(=O)O)C(C)C)[C@@H](C)CC)C(=O)O", "note": "[liraglutide]", "values": [{"measurement": "fibrillation outcome in ThT assay", "setting": "pH 6.5", "value": "reduce liragludite fibrillation"}, {"measurement": "fibrillation outcome in ThT assay", "setting": "pH 7, 37° C.", "value": "ability to constrain fibril growth was also observed"}]}
